Experimental data reported in the supplement of paper PMC12823440, “Inhibitors supercharge kinase turnover through native proteolytic circuits” (Nature, 2025).
Where a name gives a salt, the structure may show the parent alone. This is one part of the list. Hit calls seldom repeat between salt and free forms of one compound.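 Kinases were expressed as nanoluciferase fusions in K562 cells and luminescence was read every 4 h between 2 and 18 h as percent of control, DMSO set to 100% and a positive control to 0%. A time point counts as decreased when the signal drops significantly (2 sigma). The hit call is the authors' own, does not follow from the count of time points alone, and its rule is not shown.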

Protein sequences, listed by entry. Tags and fused reporters are not part of them. Lines headed by an entry give the natural chain unless they say otherwise; changes in a name come on top.
UniProt P07947, whole entry, looked up: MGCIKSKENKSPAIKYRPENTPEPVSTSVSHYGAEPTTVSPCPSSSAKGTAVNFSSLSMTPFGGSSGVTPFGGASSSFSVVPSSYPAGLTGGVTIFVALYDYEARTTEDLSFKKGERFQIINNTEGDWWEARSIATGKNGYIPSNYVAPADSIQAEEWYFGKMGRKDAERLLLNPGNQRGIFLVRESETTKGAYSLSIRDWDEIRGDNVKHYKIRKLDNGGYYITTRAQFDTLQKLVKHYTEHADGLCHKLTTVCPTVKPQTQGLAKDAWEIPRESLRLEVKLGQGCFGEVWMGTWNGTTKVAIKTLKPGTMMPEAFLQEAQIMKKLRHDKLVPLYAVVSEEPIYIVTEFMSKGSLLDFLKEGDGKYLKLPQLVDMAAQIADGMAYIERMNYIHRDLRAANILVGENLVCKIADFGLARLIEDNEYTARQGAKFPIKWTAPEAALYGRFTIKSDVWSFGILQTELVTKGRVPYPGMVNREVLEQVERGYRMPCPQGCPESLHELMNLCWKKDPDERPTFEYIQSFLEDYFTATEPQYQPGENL
UniProt P43403: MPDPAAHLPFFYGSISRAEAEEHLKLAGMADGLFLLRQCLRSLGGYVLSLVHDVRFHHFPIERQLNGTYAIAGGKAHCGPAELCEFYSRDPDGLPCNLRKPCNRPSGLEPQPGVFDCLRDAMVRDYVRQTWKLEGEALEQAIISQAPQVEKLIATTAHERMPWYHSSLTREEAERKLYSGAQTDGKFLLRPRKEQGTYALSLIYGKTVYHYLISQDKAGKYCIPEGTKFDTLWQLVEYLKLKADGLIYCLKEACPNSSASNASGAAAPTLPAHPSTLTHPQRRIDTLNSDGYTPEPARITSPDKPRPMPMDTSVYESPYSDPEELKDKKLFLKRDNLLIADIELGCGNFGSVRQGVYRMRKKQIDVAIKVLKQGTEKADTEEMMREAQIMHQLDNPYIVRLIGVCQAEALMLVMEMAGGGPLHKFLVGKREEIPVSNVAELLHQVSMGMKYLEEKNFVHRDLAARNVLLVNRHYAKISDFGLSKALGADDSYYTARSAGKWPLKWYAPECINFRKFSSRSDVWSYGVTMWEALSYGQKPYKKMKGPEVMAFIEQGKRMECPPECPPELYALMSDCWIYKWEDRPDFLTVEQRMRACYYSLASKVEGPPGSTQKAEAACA
UniProt P11802: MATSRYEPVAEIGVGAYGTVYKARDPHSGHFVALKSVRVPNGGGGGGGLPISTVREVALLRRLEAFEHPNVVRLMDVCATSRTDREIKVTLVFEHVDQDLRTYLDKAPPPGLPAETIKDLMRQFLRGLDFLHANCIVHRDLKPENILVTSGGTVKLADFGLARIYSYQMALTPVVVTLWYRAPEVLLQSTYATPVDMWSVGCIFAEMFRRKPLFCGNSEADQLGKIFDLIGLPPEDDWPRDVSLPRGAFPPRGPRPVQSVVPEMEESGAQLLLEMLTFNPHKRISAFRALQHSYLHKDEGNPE
UniProt P50613: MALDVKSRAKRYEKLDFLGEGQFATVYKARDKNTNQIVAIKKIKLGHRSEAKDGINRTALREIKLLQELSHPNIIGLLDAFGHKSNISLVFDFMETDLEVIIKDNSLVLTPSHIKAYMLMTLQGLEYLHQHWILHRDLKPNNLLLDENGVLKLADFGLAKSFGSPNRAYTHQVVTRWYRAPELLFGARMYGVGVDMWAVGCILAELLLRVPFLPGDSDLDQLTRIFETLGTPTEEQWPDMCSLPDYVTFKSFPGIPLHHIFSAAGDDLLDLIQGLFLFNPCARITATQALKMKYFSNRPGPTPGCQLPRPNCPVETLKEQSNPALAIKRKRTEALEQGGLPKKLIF
UniProt P50750, whole entry: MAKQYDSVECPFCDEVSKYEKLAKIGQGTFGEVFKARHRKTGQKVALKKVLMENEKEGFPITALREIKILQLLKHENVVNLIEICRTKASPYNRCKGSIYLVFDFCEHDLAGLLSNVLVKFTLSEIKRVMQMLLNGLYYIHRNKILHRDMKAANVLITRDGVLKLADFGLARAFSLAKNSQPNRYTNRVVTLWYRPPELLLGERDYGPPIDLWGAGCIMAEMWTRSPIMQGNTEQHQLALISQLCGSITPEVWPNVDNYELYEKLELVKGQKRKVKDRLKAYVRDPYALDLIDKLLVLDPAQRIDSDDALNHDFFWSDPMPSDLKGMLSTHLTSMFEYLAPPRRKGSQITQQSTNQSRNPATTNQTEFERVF

How the values were obtained:
Conditions in all cases: K562; 2-18 h
YES1 = YES1 (UniProt P07947); experiment: number of time points (of 5) at which kinase-Nluc abundance scored as decreased, DMSO-normalised (count); higher = more persistent destabilization
ZAK = ZAK (UniProt Q9NYL2); experiment: as above
ZAP70 = ZAP70 (UniProt P43403); experiment: as above
CDK4 = CDK4 (UniProt P11802); experiment: number of time points (of 4; 2 h point missing) at which kinase-Nluc abundance scored as decreased, DMSO-normalised (count); higher = more persistent destabilization
CDK7 = CDK7 (UniProt P50613); experiment: as above
CDK9 = CDK9 (UniProt P50750); experiment: as above

SMILES | number of time points (YES1) | number of time points (ZAK) | number of time points (ZAP70) | number of time points (CDK4) | number of time points (CDK7) | number of time points (CDK9)
O=C1NC(=O)/C(=C/c2ccc(-c3ccc(F)cc3O)o2)S1 (10 µM) | 0 | 0 | 0 | 0 | 0 | 0
C=CC(=O)Nc1cccc(Oc2nc(Nc3ccc(N4CCN(C)CC4)cc3)nc3ccoc23)c1 [Poseltinib] (10 µM) | 0 | 0 | 0 | 0 | 0 | 0
COc1ccc2c(=O)c(-c3ccccc3)coc2c1 [7-Methoxyisoflavone] (10 µM) | 0 | 0 | 0 | 0 | 0 | 0
COc1ccc(CCNc2ncc3c(=O)n(-c4cccc(F)c4)c(=O)[nH]c3n2)cc1OC (2 µM) | 0 | 0 | 0 | 0 | 0 | 0
CCCCCCCC/C=C\CCCCCCCC(=O)NCC(=O)O [N-Oleoyl glycine] (10 µM) | 0 | 0 | 0 | 0 | 0 | 0
CC[C@H](Nc1ncnc2[nH]cnc12)c1oc2ccccc2c(=O)c1-c1cccc(F)c1 [Tenalisib] (10 µM) | 0 | 0 | 0 | 0 | 0 | 0
CCOc1nc(Nc2ccc(C(=O)N3CCOCC3)cc2OC)nc2[nH]ccc12 [LRRK2 inhibitor 1] (2.5 µM) | 0 | 0 | 0 | 0 | 0 | 0
Nc1nc2cc(-c3ccc4ncc(C(=O)N5CCOCC5)n4c3)ccc2o1 [Serabelisib] (10 µM) | 0 | 0 | 0 | 0 | 0 | 0
CC1(COc2ccc3c(c2)ncn3-c2ccc3cccc(N4CCC(N)CC4)c3n2)COC1 [Crenolanib] (2.5 µM) | 0 | 0 | 0 | 0 | 3 | 0
Fc1c(Br)cccc1Nc1ncnc2cc3c(cc12)OCCO3 (2.5 µM) | 0 | 0 | 0 | 1 | 0 | 0
CCc1ccc(C(=O)COc2ccc(CC3SC(=O)NC3=O)cc2)nc1 (configuration not stated) (10 µM) | 0 | 0 | 0 | 0 | 0 | 0
COc1cc(N2CCC(N3CCN(C)CC3)CC2)ccc1Nc1nc2c(c(Nc3ccccc3S(=O)(=O)NC(C)C)n1)CCN2 [Conteltinib] (10 µM) | 0 | 0 | 0 | 0 | 0 | 0
CCC(C)(C)C(=O)N(O)Cc1ccccc1 (10 µM) | 0 | 0 | 0 | 0 | 0 | 0
CC(C)C[C@H](NC(=O)[C@H](CCCCN)NC(=O)[C@H](CO)NC(=O)[C@@H](N)CC(C)C)C(N)=O [LSKL, Inhibitor of Thrombospondin (TSP-1) (TFA)] (10 µM) | 0 | 0 | 0 | 0 | 0 | 0
CC(C)(C)Cn1c(N)nc2ccc(-c3[nH]c(C(C)(C)C)nc3-c3ccc(F)cc3)nc21 [Ralimetinib dimesylate] (2.5 µM) | 0 | 0 | 0 | 0 | 0 | 0
O=C1NC(=O)C(=Cc2ccc3c(c2)OCO3)S1 (10 µM) | 0 | 0 | 0 | 0 | 0 | 0
CNC(=O)c1cc(Oc2ccc3nc(N[C@@H]4CCCC[C@H]4O)sc3c2)ccn1 (10 µM) | 0 | 0 | 0 | 0 | 0 | 0
[O-][n+]1cccc(-c2nc3c(Cl)cccc3cc2[C@@H](Nc2ncnc3cccnc23)C(F)(F)F)c1 [Seletalisib] (10 µM) | 0 | 0 | 0 | 0 | 0 | 0
COC(=O)[C@@]1(C)CC[C@]2(C(=O)O)CC[C@]3(C)C(=CC[C@@H]4[C@@]5(C)C[C@H](O)[C@H](O[C@@H]6OC[C@@H](O[C@@H]7O[C@H](CO)[C@@H](O)[C@H](O)[C@H]7O)[C@H](O)[C@H]6O)[C@@](C)(CO)[C@@H]5CC[C@]43C)[C@@H]2C1 [Esculentoside A] (10 µM) | 0 | 0 | 0 | 0 | 0 | 0
CCN1C(=O)CNc2ncc(-c3ccc(-c4nc[nH]n4)nc3C)nc21 [CC-115 (hydrochloride)] (2.5 µM) | 1 | 1 | 0 | 0 | 4 | 1
O=[N+]([O-])c1ccc(Sc2cccc[n+]2[O-])c2nonc12 (2.5 µM) | 0 | 0 | 0 | 0 | 0 | 0
CCn1nc(C2CCN(C(=O)CCO)CC2)nc1-c1cnc(N)c(-c2nnc(C(C)(C)C)o2)n1 (10 µM) | 0 | 0 | 0 | 0 | 0 | 0
O=C1NC(=O)C(c2cnc3ccccn23)=C1c1cn2c3c(cc(F)cc13)CN(C(=O)N1CCCCC1)CC2 (2.5 µM) | 0 | 0 | 0 | 0 | 0 | 0
C[C@H]1Cc2ccccc2N1C(=O)Cc1nc(N2CCOCC2)cc(=O)[nH]1 (2.5 µM) | 0 | 0 | 0 | 0 | 0 | 0

SMILES | number of time points (YES1) | number of time points (ZAK) | number of time points (ZAP70) | number of time points (CDK4) | number of time points (CDK7) | number of time points (CDK9)
O=c1ccoc2cc(O)ccc12 [7-Hydroxy-4H-chromen-4-one] (10 µM) | 0 | 0 | 0 | 0 | 0 | 0
CCCC(=O)Nc1nc2c(ncn2[C@@H]2O[C@@H]3COP(=O)(O)O[C@H]3[C@H]2OC(=O)CCC)c(=O)[nH]1 [Dibutyryl-cGMP (sodium)] (10 µM) | 0 | 0 | 0 | 0 | 0 | 0
CCCCOc1ccc(CC/C=C2\SC(=O)N(CCN)C2=O)cc1 [K145 (hydrochloride)] (2.5 µM) | 0 | 0 | 0 | 0 | 0 | 0
O=C(O)CCc1ccc(NCc2cccc(Oc3ccccc3)c2)cc1 (10 µM) | 0 | 0 | 0 | 0 | 0 | 0
O=Nc1c(-c2c(O)[nH]c3ccccc23)[nH]c2ccccc12 [Indirubin-3'-monoxime] (2.5 µM) | 0 | 0 | 0 | 0 | 0 | 0
Cc1ccc(-c2nn(C(C)(C)CNC(=O)c3ccncc3)c3ncnc(N)c23)cc1 (2.5 µM) | 0 | 0 | 0 | 0 | 0 | 0
CC(=O)Nc1nc(C)c(-c2nc(N3CCCC(O)C3)no2)s1 (configuration not stated) (10 µM) | 0 | 0 | 0 | 0 | 0 | 0
O[C@H]1CC[C@H](Nc2ncc3nc(Nc4c(F)cc(F)cc4F)n([C@H]4CCOC4)c3n2)CC1 [Tanzisertib] (10 µM) | 0 | 0 | 0 | 0 | 0 | 0
O=C1NCCCc2c1oc1ccc(O)cc21 (10 µM) | 0 | 0 | 0 | 0 | 0 | 0
CC(=O)NCCc1c[nH]c2ccc(O)cc12 [N-Acetyl-5-hydroxytryptamine] (10 µM) | 0 | 0 | 0 | 0 | 0 | 0
COC1(C(=O)N[C@@H](C)c2ccc(-n3cc(F)cn3)nc2)CCC(c2nc(C)cc(Nc3cc(C)[nH]n3)n2)CC1 (stereo partly drawn) [trans-Pralsetinib] (2.5 µM) | 0 | 0 | 0 | 0 | 0 | 0
c1ccc(-c2nn3c(c2-c2ccnc4cc(OCCN5CCOCC5)ccc24)CCC3)nc1 (10 µM) | 0 | 0 | 0 | 0 | 0 | 0
O=C(c1ccc(Nc2nccc(-c3cc4ccccc4s3)n2)cc1)N1CCC(N2CCCC2)CC1 (2.5 µM) | 0 | 0 | 0 | 0 | 0 | 0
O=C(Nc1cccc(-c2nncn2C2CC2)c1)c1cc(-n2cnc(C3CC3)c2)ccn1 (10 µM) | 0 | 0 | 0 | 0 | 0 | 0
CC(C)Oc1ccc(-c2cnc3c(-c4ccnc5ccccc45)cnn3c2)cc1 (10 µM) | 0 | 0 | 0 | 0 | 0 | 0
CC(=O)Nc1nc2ccc(-c3cnc(C)c(NC(=O)OC4CCCCC4)c3)cc2s1 (10 µM) | 0 | 0 | 0 | 0 | 0 | 0
C[C@@H]1COCCN1c1cc(=O)n2c(n1)N(Cc1cncc(Cl)c1)[C@H](C(F)(F)F)CC2 (10 µM) | 0 | 0 | 0 | 0 | 0 | 0
Cc1ccc(-c2ccc3c(ccc4sc5c(c43)NC[C@@H](C)NC5=O)n2)cn1 (10 µM) | 0 | 0 | 0 | 0 | 0 | 0
COc1cc(C(C)=O)cc(OC)c1O [Acetosyringone] (10 µM) | 0 | 0 | 0 | 0 | 0 | 0
COc1cnccc1Nc1nc(-c2nn(Cc3c(F)cc(OCCO)cc3F)c3ccccc23)ncc1OC (10 µM) | 0 | 0 | 0 | 0 | 0 | 0
CN(C)c1ncnc2nc[nH]c12 [6-(Dimethylamino)purine] (10 µM) | 0 | 0 | 0 | 0 | 0 | 0
CC(C)n1cnc2c(Nc3cccc(Cl)c3)nc(NCCO)nc21 (10 µM) | 0 | 0 | 0 | 0 | 0 | 0
Nc1cc(C(F)(F)F)c(-c2nc(N3CCOCC3)nc(N3CCOCC3)n2)cn1 [Bimiralisib] (10 µM) | 0 | 0 | 0 | 0 | 3 | 0

Quoted from the listing:
number of time points (ZAP70) with Nc1cc(C(F)(F)F)c(-c2nc(N3CCOCC3)nc(N3CCOCC3)n2)cn1 [Bimiralisib] (10 µM) is entered as 0
number of time points (CDK4) with COc1cc(C(C)=O)cc(OC)c1O [Acetosyringone] (10 µM) is entered as 0
